Results as given in the supplement of paper PMC6078165.
Values are relative to the signal before dosing, not to a vehicle control; the signal also falls without drug.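 Labels refer to human fibroblasts, largely primary: uterine (C12385, HUF), lung (H6013), bone (Hs27A), adrenal (HADF), skin (WS1), plus mammary HMF and breast cancer-associated Hs343T. Cancer lines are basal-like or mesenchymal-like triple-negative breast cancer. The paper counts as hits responses shifting over 3x the replicate standard deviation. The tissue of the other fibroblasts is not given here.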

Test system: MDAMB231
Experiment: relative JC-1 red fluorescence (viability) vs pre-drug, coculture with fibroblast (fraction); higher = more viable cancer cells
Experimental: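 JC-1 labelled TNBC cells cocultured 1:1 (1,500 cells each) with CellTrace Violet stained primary or stromal fibroblasts in 384-well plates in FluoroBrite medium, treated with one of 42 anticancer drugs at 0.1, 1, 10 or 100 uM. JC-1 red fluorescence (mitochondrial integrity in cancer cells only) was read by plate reader every 8 h for 72 h. Values are normalised to each well's pre-drug value. The stock of one drug was tenfold lower, so its dose labels may be too high.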

CC(=O)O[C@@]12CO[C@@H]1C[C@H](O)[C@@]1(C)C(=O)[C@H](O)C3=C(C)[C@@H](OC(=O)[C@H](O)[C@@H](NC(=O)OC(C)(C)C)c4ccccc4)C[C@@](O)([C@@H](OC(=O)c4ccccc4)[C@H]21)C3(C)C [Docetaxel]
relative JC-1 red fluorescence
Settings	8 h	16 h	24 h	32 h	40 h	48 h	56 h	64 h	72 h
0.1 µM, coculture fibroblast: C12385	0.783	0.711	0.647	0.582	0.516	0.484	0.449	0.464	0.464
0.1 µM, coculture fibroblast: H6013	0.8865	0.813	0.775	0.734	0.673	0.658	0.646	0.63	0.607
0.1 µM, coculture fibroblast: H6019	0.746	0.68	0.642	0.578	0.542	0.541	0.518	0.535	0.529
0.1 µM, coculture fibroblast: H6076	0.852	0.77	0.695	0.668	0.627	0.599	0.587	0.583	0.598
0.1 µM, coculture fibroblast: H6231	0.911	0.794	0.705	0.656	0.606	0.5694	0.526	0.512	0.495
0.1 µM, coculture fibroblast: HADF	0.875	0.8302	0.78	0.722	0.671	0.635	0.597	0.585	0.551
0.1 µM, coculture fibroblast: HCFa	0.873	0.814	0.762	0.696	0.643	0.595	0.552	0.518	0.477
0.1 µM, coculture fibroblast: HCPF	0.889	0.78	0.695	0.658	0.599	0.56	0.5258	0.499	0.4898
0.1 µM, coculture fibroblast: HHSteC	0.9102	0.888	0.829	0.738	0.673	0.645	0.598	0.584	0.557
0.1 µM, coculture fibroblast: HMF	0.8943	0.792	0.711	0.662	0.595	0.556	0.505	0.497	0.491
0.1 µM, coculture fibroblast: HPFa	0.9629	0.8906	0.818	0.757	0.734	0.702	0.653	0.632	0.5853
0.1 µM, coculture fibroblast: HUF	0.857	0.709	0.735	0.612	0.551	0.544	0.504	0.526	0.525
0.1 µM, coculture fibroblast: Hs5	0.867	0.797	0.7352	0.6879	0.6486	0.601	0.581	0.566	0.548
0.1 µM, coculture fibroblast: Hs27A	0.8947	0.82	0.7766	0.737	0.679	0.629	0.621	0.604	0.569
0.1 µM, coculture fibroblast: Hs343T	0.8852	0.75	0.654	0.605	0.537	0.49	0.439	0.428	0.41602
0.1 µM, coculture fibroblast: WS1	0.751	0.663	0.599	0.517	0.461	0.438	0.402	0.41	0.409
1 µM, coculture fibroblast: C12385	0.8	0.776	0.728	0.678	0.618	0.604	0.572	0.597	0.606
1 µM, coculture fibroblast: H6013	0.887	0.836	0.7883	0.763	0.694	0.704	0.684	0.694	0.675
1 µM, coculture fibroblast: H6019	0.734	0.62	0.634	0.557	0.538	0.546	0.531	0.57	0.55
1 µM, coculture fibroblast: H6076	0.8657	0.752	0.672	0.652	0.6127	0.585	0.5704	0.578	0.5856
1 µM, coculture fibroblast: H6231	0.9139	0.829	0.753	0.716	0.658	0.64	0.603	0.595	0.577
1 µM, coculture fibroblast: HADF	0.868	0.829	0.746	0.699	0.647	0.637	0.622	0.615	0.592
1 µM, coculture fibroblast: HCFa	0.9	0.8235	0.782	0.728	0.667	0.638	0.594	0.566	0.527
1 µM, coculture fibroblast: HCPF	0.906	0.854	0.763	0.759	0.729	0.698	0.693	0.671	0.668
1 µM, coculture fibroblast: HHSteC	0.9238	0.869	0.816	0.748	0.68	0.6507	0.6043	0.593	0.5485
1 µM, coculture fibroblast: HMF	0.871	0.7686	0.684	0.647	0.6	0.571	0.529	0.522	0.5029
1 µM, coculture fibroblast: HPFa	0.9531	0.9112	0.8534	0.77118	0.74738	0.7218	0.665	0.64875	0.6102
1 µM, coculture fibroblast: HUF	0.856	0.761	0.739	0.618	0.562	0.545	0.51	0.517	0.497
1 µM, coculture fibroblast: Hs5	0.849	0.774	0.724	0.688	0.65	0.6057	0.588	0.574	0.571
1 µM, coculture fibroblast: Hs27A	0.904	0.8696	0.82096	0.756	0.7207	0.674	0.671	0.657	0.626
1 µM, coculture fibroblast: Hs343T	0.888	0.767	0.653	0.591	0.515	0.465	0.413	0.387	0.371
1 µM, coculture fibroblast: WS1	0.732	0.632	0.592	0.52	0.477	0.469	0.441	0.46	0.455
